Data from the supplement of paper PMC10849652.
This is one part of the list.

Amino acid sequences for entries named in this document (tags omitted). A change or cut given only in a name is not applied to a line headed by its entry.
UniProt P14854, whole entry, looked up: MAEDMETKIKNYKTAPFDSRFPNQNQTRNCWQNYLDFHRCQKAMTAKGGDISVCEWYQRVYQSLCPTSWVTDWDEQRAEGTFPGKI
UniProt Q9Y678: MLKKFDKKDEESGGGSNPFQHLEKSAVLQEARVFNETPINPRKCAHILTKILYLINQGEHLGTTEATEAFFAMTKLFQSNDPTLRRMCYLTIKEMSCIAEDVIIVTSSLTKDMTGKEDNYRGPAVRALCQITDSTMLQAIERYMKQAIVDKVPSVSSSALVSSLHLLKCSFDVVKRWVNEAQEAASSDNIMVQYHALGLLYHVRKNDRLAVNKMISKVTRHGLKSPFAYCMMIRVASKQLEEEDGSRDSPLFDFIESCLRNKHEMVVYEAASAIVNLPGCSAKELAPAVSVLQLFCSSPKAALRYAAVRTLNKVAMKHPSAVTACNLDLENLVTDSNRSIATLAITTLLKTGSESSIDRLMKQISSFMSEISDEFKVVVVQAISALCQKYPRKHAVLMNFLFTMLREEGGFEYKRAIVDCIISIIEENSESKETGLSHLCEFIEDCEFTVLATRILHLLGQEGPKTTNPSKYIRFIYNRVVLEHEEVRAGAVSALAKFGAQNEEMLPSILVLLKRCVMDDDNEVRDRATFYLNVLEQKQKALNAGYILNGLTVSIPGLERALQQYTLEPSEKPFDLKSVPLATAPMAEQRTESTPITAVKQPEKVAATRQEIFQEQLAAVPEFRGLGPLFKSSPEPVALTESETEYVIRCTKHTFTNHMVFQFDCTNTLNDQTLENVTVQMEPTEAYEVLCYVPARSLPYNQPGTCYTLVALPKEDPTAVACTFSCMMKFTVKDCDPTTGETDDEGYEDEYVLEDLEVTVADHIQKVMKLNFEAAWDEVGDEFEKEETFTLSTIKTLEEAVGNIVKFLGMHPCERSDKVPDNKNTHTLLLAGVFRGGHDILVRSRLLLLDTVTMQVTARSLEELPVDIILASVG
UniProt Q86VU5: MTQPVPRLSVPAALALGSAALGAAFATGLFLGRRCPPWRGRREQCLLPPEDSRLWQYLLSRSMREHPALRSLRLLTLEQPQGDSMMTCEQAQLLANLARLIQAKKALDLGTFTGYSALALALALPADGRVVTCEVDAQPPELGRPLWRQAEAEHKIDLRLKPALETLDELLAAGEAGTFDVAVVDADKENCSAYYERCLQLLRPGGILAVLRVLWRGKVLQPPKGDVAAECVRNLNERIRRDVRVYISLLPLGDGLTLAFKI
UniProt Q8NI60: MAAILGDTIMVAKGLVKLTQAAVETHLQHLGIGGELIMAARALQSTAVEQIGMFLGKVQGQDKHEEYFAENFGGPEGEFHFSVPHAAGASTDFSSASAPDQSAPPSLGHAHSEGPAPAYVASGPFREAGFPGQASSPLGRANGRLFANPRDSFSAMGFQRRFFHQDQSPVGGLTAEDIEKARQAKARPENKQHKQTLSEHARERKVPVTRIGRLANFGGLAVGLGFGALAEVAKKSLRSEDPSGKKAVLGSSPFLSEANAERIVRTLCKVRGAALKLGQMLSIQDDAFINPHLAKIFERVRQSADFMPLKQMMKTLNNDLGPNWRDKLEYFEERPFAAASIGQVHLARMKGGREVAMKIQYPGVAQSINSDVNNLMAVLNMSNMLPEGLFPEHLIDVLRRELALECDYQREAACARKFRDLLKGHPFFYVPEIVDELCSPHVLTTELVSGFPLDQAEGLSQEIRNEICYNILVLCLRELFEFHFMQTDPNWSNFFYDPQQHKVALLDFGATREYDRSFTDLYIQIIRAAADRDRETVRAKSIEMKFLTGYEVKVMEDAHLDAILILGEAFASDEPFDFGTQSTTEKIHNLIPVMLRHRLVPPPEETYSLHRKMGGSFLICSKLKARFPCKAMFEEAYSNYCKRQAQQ
UniProt Q9BSW2: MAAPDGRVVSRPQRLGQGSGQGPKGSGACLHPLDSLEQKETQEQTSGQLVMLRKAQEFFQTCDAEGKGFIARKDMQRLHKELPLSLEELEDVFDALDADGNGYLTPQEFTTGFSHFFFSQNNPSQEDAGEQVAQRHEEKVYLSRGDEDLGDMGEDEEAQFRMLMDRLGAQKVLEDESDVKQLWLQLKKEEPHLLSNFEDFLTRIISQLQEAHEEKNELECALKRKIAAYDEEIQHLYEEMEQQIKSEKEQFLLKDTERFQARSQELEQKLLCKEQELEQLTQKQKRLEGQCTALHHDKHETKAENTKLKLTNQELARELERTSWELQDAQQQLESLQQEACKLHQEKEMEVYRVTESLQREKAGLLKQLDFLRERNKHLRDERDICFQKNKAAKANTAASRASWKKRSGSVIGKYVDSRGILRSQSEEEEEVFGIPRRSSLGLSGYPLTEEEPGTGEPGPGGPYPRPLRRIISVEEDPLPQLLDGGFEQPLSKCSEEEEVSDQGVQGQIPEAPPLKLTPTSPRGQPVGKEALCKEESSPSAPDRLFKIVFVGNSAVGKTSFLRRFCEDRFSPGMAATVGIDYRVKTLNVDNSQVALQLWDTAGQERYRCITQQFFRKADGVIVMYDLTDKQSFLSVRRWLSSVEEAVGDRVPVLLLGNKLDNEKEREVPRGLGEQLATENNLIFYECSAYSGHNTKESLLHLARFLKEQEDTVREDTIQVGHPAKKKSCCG
UniProt Q9Y6M4: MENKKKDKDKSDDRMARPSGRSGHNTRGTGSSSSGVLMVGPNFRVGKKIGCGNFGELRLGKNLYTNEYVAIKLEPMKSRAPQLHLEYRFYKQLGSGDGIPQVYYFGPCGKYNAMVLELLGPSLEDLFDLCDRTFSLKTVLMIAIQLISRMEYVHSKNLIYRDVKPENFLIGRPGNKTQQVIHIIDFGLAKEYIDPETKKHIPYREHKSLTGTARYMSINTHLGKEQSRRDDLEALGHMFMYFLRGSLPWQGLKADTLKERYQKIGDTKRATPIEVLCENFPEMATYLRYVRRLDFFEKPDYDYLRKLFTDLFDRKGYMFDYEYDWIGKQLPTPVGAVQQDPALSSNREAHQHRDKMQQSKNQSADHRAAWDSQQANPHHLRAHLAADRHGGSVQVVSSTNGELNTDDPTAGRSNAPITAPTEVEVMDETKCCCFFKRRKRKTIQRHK
UniProt Q9BRF8, whole entry, looked up: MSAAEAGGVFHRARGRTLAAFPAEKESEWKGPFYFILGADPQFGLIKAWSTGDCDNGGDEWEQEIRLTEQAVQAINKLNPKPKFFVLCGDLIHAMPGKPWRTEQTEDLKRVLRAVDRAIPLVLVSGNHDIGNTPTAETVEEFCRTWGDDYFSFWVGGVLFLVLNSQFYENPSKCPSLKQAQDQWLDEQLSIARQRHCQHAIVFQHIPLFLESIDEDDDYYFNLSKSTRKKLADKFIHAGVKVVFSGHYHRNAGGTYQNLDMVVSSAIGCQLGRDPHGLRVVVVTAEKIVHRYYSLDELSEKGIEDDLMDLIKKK
UniProt O75534: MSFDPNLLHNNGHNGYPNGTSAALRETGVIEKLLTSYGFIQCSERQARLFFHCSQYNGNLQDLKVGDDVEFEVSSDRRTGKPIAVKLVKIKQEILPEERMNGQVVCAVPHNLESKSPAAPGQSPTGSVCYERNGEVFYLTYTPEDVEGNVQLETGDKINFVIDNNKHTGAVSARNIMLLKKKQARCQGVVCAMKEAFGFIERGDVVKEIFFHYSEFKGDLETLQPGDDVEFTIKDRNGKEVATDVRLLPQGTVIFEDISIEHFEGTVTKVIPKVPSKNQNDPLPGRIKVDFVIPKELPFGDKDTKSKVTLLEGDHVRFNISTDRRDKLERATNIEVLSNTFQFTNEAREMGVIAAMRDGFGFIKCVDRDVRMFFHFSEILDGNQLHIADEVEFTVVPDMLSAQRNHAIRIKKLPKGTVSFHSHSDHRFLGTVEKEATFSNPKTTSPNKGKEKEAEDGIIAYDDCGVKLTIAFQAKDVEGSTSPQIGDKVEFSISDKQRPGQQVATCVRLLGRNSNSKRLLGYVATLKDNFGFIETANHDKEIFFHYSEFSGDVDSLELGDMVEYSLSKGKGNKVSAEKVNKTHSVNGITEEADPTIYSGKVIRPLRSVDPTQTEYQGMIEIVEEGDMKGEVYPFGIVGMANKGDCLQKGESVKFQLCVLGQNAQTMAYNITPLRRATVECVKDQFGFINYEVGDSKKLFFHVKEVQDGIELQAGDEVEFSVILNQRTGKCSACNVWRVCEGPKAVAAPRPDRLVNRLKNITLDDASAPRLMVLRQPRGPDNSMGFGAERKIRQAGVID
UniProt P53674: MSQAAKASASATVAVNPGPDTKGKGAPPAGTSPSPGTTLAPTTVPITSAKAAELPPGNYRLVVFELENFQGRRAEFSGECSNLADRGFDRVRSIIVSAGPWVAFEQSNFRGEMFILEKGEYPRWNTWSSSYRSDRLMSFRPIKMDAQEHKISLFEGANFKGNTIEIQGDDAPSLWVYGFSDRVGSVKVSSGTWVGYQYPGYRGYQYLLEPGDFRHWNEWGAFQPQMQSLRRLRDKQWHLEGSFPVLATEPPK
UniProt P09669, whole entry, looked up: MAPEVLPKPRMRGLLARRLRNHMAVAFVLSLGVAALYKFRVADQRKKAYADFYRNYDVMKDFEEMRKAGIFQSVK
UniProt Q5TZA2: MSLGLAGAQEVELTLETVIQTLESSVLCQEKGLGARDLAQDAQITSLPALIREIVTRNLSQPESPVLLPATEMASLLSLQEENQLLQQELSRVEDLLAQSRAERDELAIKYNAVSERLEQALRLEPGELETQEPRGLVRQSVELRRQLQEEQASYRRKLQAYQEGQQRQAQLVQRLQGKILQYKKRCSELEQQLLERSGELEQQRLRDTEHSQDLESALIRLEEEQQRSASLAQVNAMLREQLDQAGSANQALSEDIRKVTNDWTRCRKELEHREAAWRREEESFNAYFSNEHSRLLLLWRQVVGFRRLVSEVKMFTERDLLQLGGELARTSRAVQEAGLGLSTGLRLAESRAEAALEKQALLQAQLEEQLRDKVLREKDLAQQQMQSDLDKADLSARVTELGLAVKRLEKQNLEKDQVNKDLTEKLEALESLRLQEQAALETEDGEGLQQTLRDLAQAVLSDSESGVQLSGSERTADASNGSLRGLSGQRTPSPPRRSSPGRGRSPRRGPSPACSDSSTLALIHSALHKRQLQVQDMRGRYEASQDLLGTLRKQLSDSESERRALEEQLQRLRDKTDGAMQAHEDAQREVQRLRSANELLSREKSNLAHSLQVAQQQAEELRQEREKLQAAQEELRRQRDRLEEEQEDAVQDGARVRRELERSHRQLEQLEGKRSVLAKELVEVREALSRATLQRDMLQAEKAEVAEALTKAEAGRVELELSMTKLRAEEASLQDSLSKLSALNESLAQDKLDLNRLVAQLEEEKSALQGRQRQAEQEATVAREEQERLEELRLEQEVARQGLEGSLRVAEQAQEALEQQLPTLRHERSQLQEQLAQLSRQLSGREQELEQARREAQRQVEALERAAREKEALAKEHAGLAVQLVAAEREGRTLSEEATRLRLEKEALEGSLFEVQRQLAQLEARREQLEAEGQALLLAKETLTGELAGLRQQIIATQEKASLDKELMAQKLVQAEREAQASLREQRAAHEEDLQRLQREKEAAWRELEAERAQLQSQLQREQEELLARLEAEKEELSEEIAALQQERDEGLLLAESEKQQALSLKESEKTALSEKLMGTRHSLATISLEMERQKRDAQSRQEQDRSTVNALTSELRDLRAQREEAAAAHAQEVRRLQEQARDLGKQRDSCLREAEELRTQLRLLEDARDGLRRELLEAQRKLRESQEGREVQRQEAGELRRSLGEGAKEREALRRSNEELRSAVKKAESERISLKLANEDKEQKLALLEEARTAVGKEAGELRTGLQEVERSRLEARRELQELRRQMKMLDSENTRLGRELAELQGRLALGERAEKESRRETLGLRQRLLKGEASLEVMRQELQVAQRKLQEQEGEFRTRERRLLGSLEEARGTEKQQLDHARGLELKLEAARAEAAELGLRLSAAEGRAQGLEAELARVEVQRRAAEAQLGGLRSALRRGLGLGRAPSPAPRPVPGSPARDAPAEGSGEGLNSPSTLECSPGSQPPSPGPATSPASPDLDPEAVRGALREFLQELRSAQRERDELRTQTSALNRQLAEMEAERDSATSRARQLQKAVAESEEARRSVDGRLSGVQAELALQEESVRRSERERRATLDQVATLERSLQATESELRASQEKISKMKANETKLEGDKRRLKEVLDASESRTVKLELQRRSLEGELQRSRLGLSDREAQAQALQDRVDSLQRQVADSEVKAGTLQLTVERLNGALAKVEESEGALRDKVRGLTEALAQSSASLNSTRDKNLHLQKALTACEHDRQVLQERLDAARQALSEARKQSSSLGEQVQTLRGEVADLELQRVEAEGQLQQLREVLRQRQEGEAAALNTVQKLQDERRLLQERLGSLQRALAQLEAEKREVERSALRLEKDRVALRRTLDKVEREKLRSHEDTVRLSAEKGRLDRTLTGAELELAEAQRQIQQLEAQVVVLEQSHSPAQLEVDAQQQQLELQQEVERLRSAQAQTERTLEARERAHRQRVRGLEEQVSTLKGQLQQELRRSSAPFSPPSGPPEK
UniProt Q49B96: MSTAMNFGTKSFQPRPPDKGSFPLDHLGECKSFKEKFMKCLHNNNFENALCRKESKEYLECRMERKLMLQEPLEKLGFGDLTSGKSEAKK

Experiments:
Assay in all cases: log2 fold change, soluble protein after heating vs DMSO (PISA); higher = thermal stabilisation; K562 cells, 10 uM, 30 min; active = over 0.2 and 3.5 SD of the protein, either way, in both replicates (recomputed)
[1] = compound: COC1=CC=C(C=C1)CN2C=CC3=C2C=C(C=C3)C(=O)NO
Outline: (§1)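 Quantification of soluble protein used TMTpro 16plex LC-MS/MS, with channel sums equalised. Samples were the supernatant after 21,000xg for 90 min of pooled aliquots from K562 cells (2×10^6 cells/mL) treated with 10 μM compound for 30 min, heated for 3 min over 48°C-58°C, and extracted in PBS with 0.5% NP-40 at 4°C. Values, from duplicates, describe thermal stability against control samples on a log2 fold-change scale.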

[2] = compound: CON(C)C(=O)N1N=C(c2cc(F)ccc2F)S[C@@]1(CCCN)c1ccccc1 [filanesib]
Outline: as §1

[3] = compound: CO[C@H]1C[C@@H]2CC[C@@H](C)[C@@](O)(O2)C(=O)C(=O)N2CCCC[C@H]2C(=O)O[C@H]([C@H](C)C[C@@H]2CC[C@H](n3cnnn3)[C@H](OC)C2)CC(=O)[C@H](C)/C=C(\C)[C@@H](O)[C@@H](OC)C(=O)[C@H](C)C[C@H](C)/C=C/C=C/C=C/1C [zotarolimus]
Outline: as §1

[4] = compound: COc1cc(C(=O)O)ccc1NC(=O)[C@@H]1N[C@@H](CC(C)(C)C)[C@](C#N)(c2ccc(Cl)cc2F)[C@H]1c1cccc(Cl)c1F [idasanutlin]
Outline: as §1

[5] = compound: COc1cc(Nc2ncc3c(n2)-c2ccc(Cl)cc2C(c2c(F)cccc2OC)=NC3)ccc1C(=O)O [alisertib]
Outline: as §1

[6] = compound: COc1cc2nc(-c3cc(F)ccc3O)nc(N[C@@H]3CNC[C@H]3C(C)(C)O)c2cc1OC
Outline: as §1

[7] = compound: COc1cc2ncnc(Nc3ccc(F)c(Cl)c3)c2cc1OCCCN1CCOCC1 [gefitinib]
Outline: as §1

[8] = compound: COc1cccc2cc(-c3nc([C@H]4CC[C@H](C(=O)O)CC4)n4ncnc(N)c34)[nH]c12
Outline: as §1

[9] = compound: CS(=O)(=O)CCNCc1ccc(-c2ccc3ncnc(Nc4ccc(OCc5cccc(F)c5)c(Cl)c4)c3c2)o1 [lapatinib]
Outline: as §1

[10] = compound: CS(=O)(=O)N1CCN(Cc2cc3nc(-c4cccc5[nH]ncc45)nc(N4CCOCC4)c3s2)CC1 [pictilisib]
Outline: as §1

Measured: log2 fold change

CORO1A (UniProt P31146)
inactive: [1] 0.03 | [2] -0.037 | [3] -0.05 | [4] -0.039 | [5] -0.034 | [6] 0.035 | [7] 0.028 | [8] -0.01 | [9] 0.037 | [10] 0.055

COX6B1 (UniProt P14854)
inactive: [1] -0.08 | [2] 0.003 | [3] 0.012 | [4] 0 | [5] 0.007 | [6] 0.045 | [7] 0.036 | [8] 0.019 | [9] -0.026 | [10] 0.002

COPG1 (UniProt Q9Y678)
inactive: [1] 0.076 | [2] 0 | [3] 0.015 | [4] -0.035 | [5] -0.039 | [6] 0.067 | [7] 0.031 | [8] -0.016 | [9] -0.006 | [10] -0.018

COLGALT1 (UniProt Q8NBJ5)
inactive: [1] -0.042 | [2] 0.089 | [3] 0.079 | [4] 0.047 | [5] -0.128 | [6] -0.002 | [7] -0.001 | [8] -0.117 | [9] 0.092 | [10] -0.07

COQ10B (UniProt Q9H8M1)
inactive: [1] -0.335 | [2] 0.221 | [3] -0.097

COQ9 (UniProt O75208)
inactive: [1] 0.02 | [2] -0.113 | [3] -0.017 | [4] 0.166 | [5] -0.038 | [6] -0.013 | [7] 0.025 | [8] 0.045 | [9] 0.043 | [10] -0.041

CPSF3 (UniProt Q9UKF6)
inactive: [1] -0.063 | [2] 0.033 | [3] 0.011 | [4] -0.007 | [5] -0.067 | [6] -0.021 | [7] 0 | [8] -0.012 | [9] 0.009 | [10] -0.025

COMTD1 (UniProt Q86VU5)
inactive: [1] -0.181 | [2] -0.161 | [3] 0.099 | [4] -0.102 | [5] 0.014 | [6] 0.105 | [7] 0.026 | [8] 0.066 | [9] -0.023 | [10] 0.116

COQ8A (UniProt Q8NI60)
inactive: [1] -0.003 | [2] -0.015 | [3] 0.011 | [4] -0.099 | [5] -0.037 | [6] -0.06 | [7] 0.065 | [8] 0.072 | [9] 0.059 | [10] 0.009

CRACR2A isoform 2 (UniProt Q9BSW2)
inactive: [1] 0.019 | [2] 0.03 | [3] -0.013 | [4] -0.002 | [5] -0.062 | [6] 0.186 | [7] 0.092 | [8] 0.082 | [9] -0.007 | [10] 0.138

CSNK1G3 (UniProt Q9Y6M4)
inactive: [1] 0.117 | [2] -0.084 | [3] -0.039 | [4] 0.067 | [5] -0.115 | [6] -0.093 | [7] -0.016 | [8] -0.088 | [9] 0.024 | [10] 0.035

CPPED1 (UniProt Q9BRF8)
inactive: [1] 0.013 | [2] -0.035 | [3] -0.052 | [4] 0.016 | [5] -0.019 | [6] 0.083 | [7] 0.02 | [8] 0.037 | [9] -0.032 | [10] 0.045

CPSF1 (UniProt Q10570)
inactive: [1] -0.042 | [2] 0.164 | [3] 0.095 | [4] 0.053 | [5] -0.08 | [6] 0.02 | [7] -0.079 | [8] 0.01 | [9] 0.029 | [10] -0.058

CRYAB (UniProt P02511)
inactive: [1] -0.129 | [2] 0.39 | [3] -0.186 | [4] 0.176

COX6A1 (UniProt P12074)
inactive: [1] 0.133 | [2] 0.175 | [3] 0.158 | [4] 0.085 | [5] 0.021 | [6] -0.068 | [7] 0.111 | [8] 0.117 | [9] -0.014

CRKL (UniProt P46109)
inactive: [1] 0.006 | [2] 0.002 | [3] 0.007 | [4] 0.022 | [5] -0.036 | [6] 0.021 | [7] 0 | [8] 0.102 | [9] -0.012 | [10] 0.057

COMMD10 (UniProt Q9Y6G5)
inactive: [1] -0.062 | [2] 0.011 | [3] 0.027 | [4] -0.023 | [5] -0.072 | [6] -0.055 | [7] 0.01 | [8] 0.015 | [9] 0.088 | [10] -0.007

CSDE1 isoform 4 (UniProt O75534)
inactive: [1] 0.031 | [2] 0.206 | [3] 0.077 | [4] 0.152 | [5] -0.008 | [6] -0.056 | [7] 0.03 | [8] -0.284 | [9] 0.045 | [10] -0.022

COPS6 (UniProt Q7L5N1)
inactive: [1] 0.057 | [2] -0.122 | [3] 0.024 | [4] -0.039 | [5] -0.022 | [6] -0.03 | [7] -0.003 | [8] 0.016 | [9] -0.094 | [10] -0.011

CPSF6 isoform 2 (UniProt Q16630)
inactive: [1] -0.03 | [2] 0.036 | [3] 0.016 | [4] 0.034 | [5] -0.046 | [6] 0.063 | [7] 0.023 | [8] 0.025 | [9] -0.016 | [10] 0.055

COMMD2 (UniProt Q86X83)
inactive: [1] -0.039 | [2] 0.058 | [3] 0.124 | [4] -0.058 | [5] -0.126 | [6] 0.076 | [7] 0.018 | [8] 0.001 | [9] 0.02 | [10] 0.007

CRYZL1 (UniProt O95825)
inactive: [1] -0.018 | [2] -0.061 | [3] -0.011 | [4] -0.05 | [5] -0.025 | [6] 0.035 | [7] -0.034 | [8] 0.052 | [9] -0.015 | [10] 0.053

CRYBB1 (UniProt P53674)
inactive: [1] -0.065

COPE (UniProt O14579)
inactive: [1] -0.05 | [2] 0.067 | [3] 0.018 | [4] -0.048 | [5] -0.044 | [6] 0.05 | [7] 0.004 | [8] 0.003 | [9] -0.036 | [10] 0.117

CRLF3 (UniProt Q8IUI8)
inactive: [1] -0.006 | [2] -0.049 | [3] 0.016 | [4] 0.039 | [5] 0.005 | [6] -0.05 | [7] 0.018 | [8] 0.014 | [9] 0.035 | [10] 0.051

COX6C (UniProt P09669)
inactive: [1] 0.09 | [2] -0.036 | [3] -0.032 | [4] 0 | [5] -0.08 | [6] 0.036 | [7] -0.035 | [8] 0.061 | [9] -0.048 | [10] 0.038

COQ3 (UniProt Q9NZJ6)
inactive: [1] -0.008 | [2] -0.184 | [3] -0.017 | [4] -0.055 | [5] -0.062 | [6] -0.03 | [7] 0.042 | [8] 0.066 | [9] 0.053 | [10] 0.026

CREB1 (UniProt P16220)
inactive: [1] -0.053 | [2] -0.004 | [3] -0.048 | [4] -0.006 | [5] -0.032 | [6] 0.001 | [7] 0.001 | [8] 0.031 | [9] -0.015 | [10] 0.063

CSNK1D (UniProt P48730)
inactive: [1] 0.045 | [2] 0.153 | [3] -0.019 | [4] 0.027 | [5] -0.016 | [6] -0.049 | [7] -0.006 | [8] -0.009 | [9] 0.041 | [10] -0.053

COMT (UniProt P21964)
inactive: [1] -0.097 | [2] -0.054 | [3] 0.034 | [4] -0.093 | [5] 0.009 | [6] 0.15 | [7] 0.043 | [8] 0.004 | [9] -0.042 | [10] 0.136

CROCC (UniProt Q5TZA2)
inactive: [1] -0.091 | [2] -0.132 | [3] 0.037 | [4] -0.015 | [5] -0.001 | [6] 0.156 | [7] 0.078 | [8] -0.061 | [9] -0.038 | [10] 0.022

2 neighbouring entries out of the list so far:
CRACR2A isoform 2 (UniProt Q9BSW2)
inactive: [1] 0.019 | [2] 0.03 | [3] -0.013 | [4] -0.002 | [5] -0.062 | [6] 0.186 | [7] 0.092 | [8] 0.082 | [9] -0.007 | [10] 0.138

CSNK1G3 (UniProt Q9Y6M4)
inactive: [1] 0.117 | [2] -0.084 | [3] -0.039 | [4] 0.067 | [5] -0.115 | [6] -0.093 | [7] -0.016 | [8] -0.088 | [9] 0.024 | [10] 0.035

Further entries.

COX19 (UniProt Q49B96)
inactive: [1] -0.017 | [2] -0.053 | [3] -0.015 | [4] 0.05 | [5] -0.044 | [6] 0.007 | [7] 0.033 | [8] 0.057 | [9] -0.011 | [10] 0.005
